Results reported in US8415469B2, “Compounds and methods for kinase modulation, and indications therefor” (Plexxikon Inc., priority 2005, dated 2013).
pIC50: −log10 of the molar value.

Sequences of proteins named here, by UniProt entry; tags and fusion partners are left off. A line that says so, or that is headed by a name, gives the form on record, which may keep a tag or linker.
UniProt P10721, with tags, fused parts or gaps: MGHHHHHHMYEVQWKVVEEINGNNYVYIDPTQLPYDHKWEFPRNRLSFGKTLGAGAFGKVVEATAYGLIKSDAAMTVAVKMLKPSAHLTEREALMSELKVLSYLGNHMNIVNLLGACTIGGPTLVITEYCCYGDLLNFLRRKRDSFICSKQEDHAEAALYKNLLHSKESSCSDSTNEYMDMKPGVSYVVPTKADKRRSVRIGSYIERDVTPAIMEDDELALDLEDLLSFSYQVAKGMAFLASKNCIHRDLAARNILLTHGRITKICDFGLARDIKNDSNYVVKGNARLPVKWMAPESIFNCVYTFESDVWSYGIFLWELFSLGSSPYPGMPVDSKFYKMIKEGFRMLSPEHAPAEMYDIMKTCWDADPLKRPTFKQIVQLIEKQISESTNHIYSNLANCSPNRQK

Target: T1, Kit (Homo sapiens, UniProt P10721)
T1 construct: P1332.N6 BI PTP KIT M552-K948-X COD; His6 (N); made in house; host or cells: E. coli (PTP1B co-expressed)
Experiment: AlphaScreen kinase assay, Kit
Assay type: biochemical
Conditions: read-out: IC50, activity toward kinase Kit

Question: `Fc1ccc(-c2cnc3[nH]ccc3c2)cc1` [Compound P-0323] was tested. Which pIC50 did it give?
Answer: The pIC50 was ≥ 5.00.
